Results deposited as PubChem BioAssay AID1259260 (Sanger Institute, 2017).

Screen: 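Kinome knock-down with three anchor drugs to find synergy partners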 (primary screen)
Cells: human NCI-H716 colorectal cancer cells
Reagents: siRNA pool against human genes
Conditions: anchor drugs BYL719 (alpelisib) 1 µM, cetuximab 5 µg/ml or trametinib 10 nM, each at a dose chosen to harm viability only mildly; DMSO vehicle for the knock-down-alone arm
Measurement: 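Mean viability over replicates against non-targeting siRNA, robust z-score without drug, and per-drug synergy comparing combined with single treatments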
Scale: viability robust z-score, siRNA alone: higher = more surviving cells; below -3 called essential; viability vs control, no drug: higher = more surviving cells; synergy score with BYL719 and synergy score with cetuximab and synergy score with trametinib: higher = stronger synergy (synthetic lethality) with drug
Active means: 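a knock-down counts as essential if its no-drug robust z-score is lower than -3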
Meaning of the calls: active = essential (knock-down alone lowers viability); inactive = no essential effect
The whole screen tested 794 reagents; below is a part drawn at random. 13 of them (1.6%) count as active. 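Calls reflect only knock-down without drug; synergy above 0.15 was grouped apart and does not change the call.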 Viability is capped at 1. Not stated in the record: the amount of reagent, the time to read-out.

| gene symbol | viability robust z-score, siRNA alone | viability vs control, no drug (fraction of control) | synergy score with BYL719 | synergy score with cetuximab | synergy score with trametinib | outcome |
| --- | --- | --- | --- | --- | --- | --- |
| ROCK2 | -0.828 | 0.851 | -0.279 | -0.141 | -0.032 | inactive |
| MAP3K20 | 0.602 | 1 | -0.283 | -0.1 | -0.219 | inactive |
| HK1 | -0.0572 | 0.931 | -0.105 | -0.162 | 0.0448 | inactive |
| MYLK | 0.458 | 0.985 | 0.0337 | -0.114 | 0.198 | inactive |
| PIP4K2B | 0.602 | 1 | -0.218 | -0.1 | 0.159 | inactive |
| CKS2 | 0.602 | 1 | 0.0554 | -0.1 | 0.0971 | inactive |
| PRP4K | 0.201 | 0.958 | -0.0864 | -0.138 | 0.0593 | inactive |
| UCK1 | 0.602 | 1 | -0.22 | -0.1 | -0.0474 | inactive |
| MAST4 | 0.602 | 1 | -0.123 | -0.1 | -0.0261 | inactive |
| TGFBR1 | -0.422 | 0.894 | -0.11 | -0.132 | 0.0633 | inactive |
| PTK2 | 0.602 | 1 | -0.0224 | -0.1 | -0.044 | inactive |
| MARK4 | -0.373 | 0.899 | -0.112 | -0.102 | -0.0888 | inactive |
| RFK | -0.226 | 0.914 | -0.301 | -0.178 | -0.225 | inactive |
| LATS1 | -2.65 | 0.662 | -0.16 | 0.00523 | -0.0556 | inactive |
| MAPK6 | 0.602 | 1 | -0.096 | -0.1 | -0.00805 | inactive |
| KCNH2 | 0.573 | 0.997 | 0.00993 | -0.103 | 0.211 | inactive |
| MAGI1 | -0.423 | 0.893 | -0.0627 | 0.0469 | 0.0558 | inactive |
| DDR2 | 0.602 | 1 | -0.0478 | -0.1 | 0.0735 | inactive |
| CDK1 | 0.602 | 1 | -0.159 | -0.1 | -0.155 | inactive |
| DYRK3 | 0.602 | 1 | -0.154 | 0.126 | -0.0305 | inactive |
| TCF12 | 0.602 | 1 | -0.283 | -0.1 | -0.124 | inactive |
| PKDCC | 0.602 | 1 | -0.149 | -0.0259 | 0.166 | inactive |
| MAPKAPK5 | -1.53 | 0.779 | -0.0364 | -0.023 | -0.151 | inactive |
| TRPM7 | 0.602 | 1 | -0.0321 | -0.1 | -0.102 | inactive |
| DBF4 | 0.602 | 1 | -0.266 | -0.0429 | -0.149 | inactive |
| MAPK15 | 0.452 | 0.984 | -0.263 | -0.114 | -0.0896 | inactive |
| RSKR | 0.602 | 1 | -0.128 | -0.1 | -0.016 | inactive |
| CDC42BPA | 0.602 | 1 | -0.263 | -0.1 | 0.093 | inactive |
| ADPGK | -1.93 | 0.737 | -0.242 | 0.0339 | -0.00175 | inactive |
| MAP3K19 | 0.445 | 0.984 | -0.0257 | 0.0351 | 0.0706 | inactive |
| IP6K1 | 0.36 | 0.975 | -0.178 | -0.123 | 0.0524 | inactive |
| SF3B1 | -4.21 | 0.5 | -0.259 | -0.323 | 0.0679 | active |
| NIM1K | 0.602 | 1 | -0.283 | -0.1 | -0.125 | inactive |
| MAP3K21 | 0.602 | 1 | -0.0654 | -0.1 | 0.0344 | inactive |
| PPP2R1A | 0.602 | 1 | -0.283 | -0.1 | -0.0266 | inactive |
| ABL2 | 0.602 | 1 | -0.0371 | -0.0553 | 0.0191 | inactive |
| BMPR1B | 0.602 | 1 | -0.0369 | -0.1 | 0.128 | inactive |
| GOLGA5 | 0.0692 | 0.945 | -0.04 | -0.0533 | 0.099 | inactive |
| CDK3 | 0.602 | 1 | -0.0582 | -0.1 | 0.199 | inactive |
| NRBP1 | 0.602 | 1 | -0.061 | -0.1 | -0.0278 | inactive |
| IDH2 | 0.602 | 1 | -0.0181 | -0.1 | 0.163 | inactive |
| LRRK1 | 0.602 | 1 | -0.1 | -0.1 | 0.0435 | inactive |
| PSKH2 | 0.602 | 1 | 0.0763 | -0.1 | 0.103 | inactive |
| PRPS1 | 0.602 | 1 | 0.0529 | 0.0505 | -0.00224 | inactive |
| FES | -0.673 | 0.867 | -0.206 | 0.279 | -0.0558 | inactive |
| GATA3 | -0.199 | 0.917 | -0.131 | -0.135 | -0.151 | inactive |
| ULK2 | -1.02 | 0.832 | -0.24 | -0.18 | -0.122 | inactive |
| FASTK | 0.602 | 1 | -0.102 | -0.1 | 0.131 | inactive |
| YES1 | 0.602 | 1 | -0.207 | -0.1 | -0.0907 | inactive |
| LCK | -0.374 | 0.899 | -0.102 | 0.0804 | -0.0261 | inactive |

Hits, of those listed so far:
| gene symbol | viability robust z-score, siRNA alone | viability vs control, no drug (fraction of control) | synergy score with BYL719 | synergy score with cetuximab | synergy score with trametinib | outcome |
| --- | --- | --- | --- | --- | --- | --- |
| SF3B1 | -4.21 | 0.5 | -0.259 | -0.323 | 0.0679 | active |
